Laboratory results published in paper PMC7870876.
Results are given in words; binding and its absence hold for the method and conditions named. Binding seen in cells or lysates may run through a third protein. Some results given as binding are weak or reduced against the parent protein; the word gives no strength.

Chains of the proteins cited; added tags and fusions are not shown.
UniProt Q02563: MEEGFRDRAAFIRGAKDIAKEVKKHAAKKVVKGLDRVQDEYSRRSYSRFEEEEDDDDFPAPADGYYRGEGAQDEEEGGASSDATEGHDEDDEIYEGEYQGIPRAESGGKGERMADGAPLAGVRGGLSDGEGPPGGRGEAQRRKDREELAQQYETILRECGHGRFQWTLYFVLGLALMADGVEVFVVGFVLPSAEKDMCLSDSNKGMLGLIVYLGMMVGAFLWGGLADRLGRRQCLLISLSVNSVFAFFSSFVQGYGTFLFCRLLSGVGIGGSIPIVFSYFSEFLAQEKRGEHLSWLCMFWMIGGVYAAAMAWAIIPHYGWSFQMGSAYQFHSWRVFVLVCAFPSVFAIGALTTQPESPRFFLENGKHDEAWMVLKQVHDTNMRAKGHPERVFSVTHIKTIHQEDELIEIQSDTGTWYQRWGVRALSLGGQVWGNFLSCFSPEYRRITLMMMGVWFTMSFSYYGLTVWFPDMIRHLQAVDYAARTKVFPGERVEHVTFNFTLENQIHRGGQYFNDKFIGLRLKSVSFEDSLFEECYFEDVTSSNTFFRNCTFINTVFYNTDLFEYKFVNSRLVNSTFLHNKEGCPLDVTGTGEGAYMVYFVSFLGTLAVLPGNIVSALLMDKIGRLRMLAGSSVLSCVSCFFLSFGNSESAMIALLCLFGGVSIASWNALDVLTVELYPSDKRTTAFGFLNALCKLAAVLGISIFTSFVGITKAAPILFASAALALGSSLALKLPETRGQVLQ
UniProt P22831: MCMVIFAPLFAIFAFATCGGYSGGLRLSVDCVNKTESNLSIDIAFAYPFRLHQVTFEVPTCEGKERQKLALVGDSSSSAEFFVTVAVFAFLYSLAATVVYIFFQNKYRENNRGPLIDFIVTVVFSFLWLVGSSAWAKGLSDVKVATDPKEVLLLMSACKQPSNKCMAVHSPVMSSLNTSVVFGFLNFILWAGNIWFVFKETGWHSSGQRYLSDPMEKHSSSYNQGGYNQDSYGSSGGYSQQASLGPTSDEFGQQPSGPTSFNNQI
UniProt Q8R2H0: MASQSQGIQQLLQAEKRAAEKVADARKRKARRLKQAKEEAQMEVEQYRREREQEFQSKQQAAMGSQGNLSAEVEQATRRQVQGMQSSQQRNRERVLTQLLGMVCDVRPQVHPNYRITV
UniProt Q6PCU2: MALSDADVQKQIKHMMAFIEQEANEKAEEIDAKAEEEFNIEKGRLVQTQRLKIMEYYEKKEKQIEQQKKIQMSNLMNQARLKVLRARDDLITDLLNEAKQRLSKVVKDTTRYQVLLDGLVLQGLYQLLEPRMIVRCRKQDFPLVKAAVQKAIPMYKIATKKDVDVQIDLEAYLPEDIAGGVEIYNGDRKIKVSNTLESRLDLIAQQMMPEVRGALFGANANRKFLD
UniProt P63045: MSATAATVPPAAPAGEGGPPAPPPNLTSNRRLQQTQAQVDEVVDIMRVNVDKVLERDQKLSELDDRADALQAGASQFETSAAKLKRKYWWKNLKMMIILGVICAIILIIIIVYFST
UniProt P07825: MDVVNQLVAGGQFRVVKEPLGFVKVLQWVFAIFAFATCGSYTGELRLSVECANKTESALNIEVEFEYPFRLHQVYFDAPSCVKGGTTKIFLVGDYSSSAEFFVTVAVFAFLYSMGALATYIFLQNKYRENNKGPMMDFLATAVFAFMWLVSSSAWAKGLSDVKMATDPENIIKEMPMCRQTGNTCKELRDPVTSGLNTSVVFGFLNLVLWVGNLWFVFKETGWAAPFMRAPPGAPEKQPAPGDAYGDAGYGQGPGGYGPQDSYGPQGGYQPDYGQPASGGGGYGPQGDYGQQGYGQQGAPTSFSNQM

Experiments:
[1] = target: SV2A (rat (endogenous in rat brain synaptic vesicles)) (UniProt Q02563); test: cross-linking; synaptic vesicles incubated with an excess of soluble ΔN-SNARE complex (about 3 copies per copy of Synaptobrevin-2, 16 h, 4 °C), then BS3 and LC-MS/MS; vesicle proteins and the SNARE complex on the vesicles
[2] = target: SV2A (rat (endogenous in rat brain synaptic vesicles)) (UniProt Q02563); test: cross-linking; purified, unstimulated, untreated rat brain synaptic vesicles; 10 mM BS3, 1 h, 25 °C; trypsin, enrichment of cross-linked peptides by peptide SEC, LC-MS/MS, pLink, manual validation; four biological replicates
[3] = target: SV2A (rat (endogenous in rat brain synaptic vesicles)) (UniProt Q02563); test: cross-linking
[4] = target: T1, Synaptogyrin-1 (rat (endogenous in rat brain synaptic vesicles)) (UniProt Q62876); test: cross-linking
T1 sequence: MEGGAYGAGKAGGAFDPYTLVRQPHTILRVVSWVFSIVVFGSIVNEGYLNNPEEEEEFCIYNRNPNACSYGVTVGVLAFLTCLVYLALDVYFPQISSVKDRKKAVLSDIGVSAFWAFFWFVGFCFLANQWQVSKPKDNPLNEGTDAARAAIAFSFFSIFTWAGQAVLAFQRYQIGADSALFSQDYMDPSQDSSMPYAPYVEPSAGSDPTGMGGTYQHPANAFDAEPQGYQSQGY

[5] = target: T1, Synaptogyrin-1 (rat (endogenous in rat brain synaptic vesicles)); test: cross-linking; synaptic vesicles fused with ΔN-SNARE-proteoliposomes (100 nm liposomes), then BS3 and LC-MS/MS; vesicle proteins in the more spacious membrane
[6] = target: T1, Synaptogyrin-1 (rat (endogenous in rat brain synaptic vesicles)); test: cross-linking; purified, unstimulated, untreated rat brain synaptic vesicles; 10 mM BS3, 1 h, 25 °C; trypsin, enrichment of cross-linked peptides by peptide SEC, LC-MS/MS, pLink, manual validation; four biological replicates
[7] = target: Synaptoporin (rat (endogenous in rat brain synaptic vesicles)) (UniProt P22831); test: as above
[8] = target: V-ATPase subunit G2 (rat (endogenous in rat brain synaptic vesicles)) (UniProt Q8R2H0); test: cross-linking
[9] = target: V-ATPase subunit G2 (rat (endogenous in rat brain synaptic vesicles)) (UniProt Q8R2H0); test: cross-linking; synaptic vesicles fused with ΔN-SNARE-proteoliposomes (100 nm liposomes), then BS3 and LC-MS/MS; vesicle proteins in the more spacious membrane
[10] = target: V-ATPase subunit G2 (rat (endogenous in rat brain synaptic vesicles)) (UniProt Q8R2H0); test: cross-linking; synaptic vesicles incubated with an excess of soluble ΔN-SNARE complex (about 3 copies per copy of Synaptobrevin-2, 16 h, 4 °C), then BS3 and LC-MS/MS; vesicle proteins and the SNARE complex on the vesicles
[11] = target: V-ATPase subunit G2 (rat (endogenous in rat brain synaptic vesicles)) (UniProt Q8R2H0); test: cross-linking; purified, unstimulated, untreated rat brain synaptic vesicles; 10 mM BS3, 1 h, 25 °C; trypsin, enrichment of cross-linked peptides by peptide SEC, LC-MS/MS, pLink, manual validation; four biological replicates
[12] = target: V-ATPase subunit E1 (rat (endogenous in rat brain synaptic vesicles)) (UniProt Q6PCU2); test: cross-linking
[13] = target: V-ATPase subunit E1 (rat (endogenous in rat brain synaptic vesicles)) (UniProt Q6PCU2); test: cross-linking; synaptic vesicles fused with ΔN-SNARE-proteoliposomes (100 nm liposomes), then BS3 and LC-MS/MS; vesicle proteins in the more spacious membrane
[14] = target: V-ATPase subunit E1 (rat (endogenous in rat brain synaptic vesicles)) (UniProt Q6PCU2); test: cross-linking; synaptic vesicles incubated with an excess of soluble ΔN-SNARE complex (about 3 copies per copy of Synaptobrevin-2, 16 h, 4 °C), then BS3 and LC-MS/MS; vesicle proteins and the SNARE complex on the vesicles
[15] = target: V-ATPase subunit E1 (rat (endogenous in rat brain synaptic vesicles)) (UniProt Q6PCU2); test: cross-linking; purified, unstimulated, untreated rat brain synaptic vesicles; 10 mM BS3, 1 h, 25 °C; trypsin, enrichment of cross-linked peptides by peptide SEC, LC-MS/MS, pLink, manual validation; four biological replicates

Measured: binding

Synaptobrevin-2 (from UniProt P63045 1-116)
binds: [1] | [2]

Synaptophysin (from UniProt P07825 1-307)
binds: [3] | [4] | [5] | [1] | [2] | [6] | [7]

V-ATPase subunit E1 (from UniProt Q6PCU2 1-226)
binds: [8] | [9] | [10] | [11]

‘head’ of the V-ATPase (i.e. subunits A and B2) (from UniProt D4A133 1-647; P62815 1-511) (complex)
binds: [12] | [13] | [14] | [15]
